Laboratory results as given in the supplement of paper PMC12889115.
This is one part of the list. These are raw signals, not scaled to a control.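 First-pass screen: polymyxin B was added at a level that permeabilizes the Salmonella outer membrane while sparing the inner membrane. DMSO wells, with and without polymyxin B, defined maximum growth. Because plates differed from one another, each plate's data were ranked separately and the compounds with the lowest OD600 were carried forward as hits.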

Tested on: Salmonella enterica serovar Typhimurium SL1344
Assay: bacterial growth OD600 after 18 h with compound and polymyxin B; higher = more bacterial growth (less inhibition)
Conditions: 50 µM, Mueller-Hinton broth

Q: With `CCOC(=O)C1(Cc2ccc(Cl)cc2)CCN(C(=O)C(=O)c2ccccc2)CC1` as the compound, how does the “bacterial growth OD600” value (polymyxin B 0.75 µg/mL) read?
A: The value was 0.352.

Q: For `CN(C(=O)c1ccco1)C(Cc1ccc(F)cc1F)C1CCN(Cc2ccc3c(c2)CCO3)CC1` (configuration not stated), which “bacterial growth OD600” value (polymyxin B 0.75 µg/mL) is on record?
A: Its value is 0.575.

Q: With `c1csc(CN2CCc3[nH]nc(-c4ccc5c(c4)OCO5)c3C2)c1` as the compound, how does the “bacterial growth OD600” value (polymyxin B 0.75 µg/mL) read?
A: Its value is 0.772.

Q: How did the “bacterial growth OD600” value (polymyxin B 1 µg/mL) turn out when `COc1cccc(-n2cc(CN(C)C(=O)c3cn(CC4CCCO4)nn3)cn2)c1` (configuration not stated) was run?
A: Its value is 1.03.

Q: Which “bacterial growth OD600” value (polymyxin B 0.75 µg/mL) does the source give for `O=C1CCC(C(=O)N2CCCC(CCc3ccccc3F)C2)=NN1` (configuration not stated) here?
A: Its value is 0.786.

Q: With `Cc1nc(N(C)C2CCCCC2)ncc1C(C)NC(=O)c1ccco1` (configuration not stated) as the compound, how does the “bacterial growth OD600” value (polymyxin B 1 µg/mL) read?
A: The value was 0.797.

Q: `CN(CCN1CCOCC1)C(=O)c1ccc2oc(CCCc3ccccc3)nc2c1` was tested. Which “bacterial growth OD600” value (polymyxin B 1 µg/mL) did it give?
A: The value was 0.801.

Q: For `O=C(CC1CCCC1)N1CCC(C2(c3cccnc3)NC(=O)N(Cc3ccsc3)C2=O)CC1` (configuration not stated), which “bacterial growth OD600” value (polymyxin B 0.75 µg/mL) is on record?
A: Its value is 0.831.

Q: Which “bacterial growth OD600” value (polymyxin B 1 µg/mL) does the source give for `O=C(NCc1cccs1)c1cc(COc2cccc(F)c2)[nH]n1` here?
A: Its value is 0.74.

Q: For `CN(Cc1cc(-c2ccccc2)no1)C(=O)Cn1nnnc1CN1CCCC1`, which “bacterial growth OD600” value (polymyxin B 0.75 µg/mL) is on record?
A: The value was 0.801.

Q: Which “bacterial growth OD600” value (polymyxin B 0.75 µg/mL) does the source give for `Cc1oc(-c2ccccc2NC(=O)CC2CCCC2)nc1CNC(=O)c1cccc(Cl)c1F` here?
A: The value was 0.718.

Q: How did the “bacterial growth OD600” value (polymyxin B 1 µg/mL) turn out when `Cc1occc1C(=O)NCc1cccnc1N1CCOCC1` was run?
A: Its value is 0.929.

Q: Which “bacterial growth OD600” value (polymyxin B 0.75 µg/mL) does the source give for `CCOC(=O)N1CCN(Cc2nc(NC(C)c3ccc(F)cc3)c3ccccc3n2)CC1` (configuration not stated) here?
A: The value was 0.897.

Q: With `CCC1CN(CCNC(=O)CCc2cccs2)Cc2cc(OC)ccc2O1` (configuration not stated) as the compound, how does the “bacterial growth OD600” value (polymyxin B 0.75 µg/mL) read?
A: The value was 0.69.

Q: Which “bacterial growth OD600” value (polymyxin B 1 µg/mL) does the source give for `Cc1noc(-c2ccc(N(C)Cc3ccncc3C)nc2)n1` here?
A: Its value is 1.05.

Q: `O=C(NC1CCCN(CCc2ccccc2)C1)c1cc2sccc2[nH]1` (configuration not stated) was tested. Which “bacterial growth OD600” value (polymyxin B 1 µg/mL) did it give?
A: The value was 0.634.

Q: For `CN(C)c1ncccc1CNC(=O)Nc1cccc(F)c1`, which “bacterial growth OD600” value (polymyxin B 1 µg/mL) is on record?
A: Its value is 0.891.

Q: For `Cc1oc(-c2ccc3ccccc3c2)nc1CN1CCN(C(=O)c2ccco2)CC1`, which “bacterial growth OD600” value (polymyxin B 1 µg/mL) is on record?
A: The value was 0.521.

Q: With `C=CCOc1ccccc1CN1CCOc2ccc(CN3CCN(Cc4ccccn4)CC3)cc2C1` as the compound, how does the “bacterial growth OD600” value (polymyxin B 0.75 µg/mL) read?
A: The value was 0.775.

Q: Which “bacterial growth OD600” value (polymyxin B 0.75 µg/mL) does the source give for `COc1cccc(N2C(=O)CN(C(=O)CC3=CCCCC3)CC2C)c1` (configuration not stated) here?
A: Its value is 0.718.

Q: Which “bacterial growth OD600” value (polymyxin B 0.75 µg/mL) does the source give for `Cc1ccc(-c2ccc(C(=O)N3CCC4(CCCN(C)C4=O)C3)cc2)o1` (configuration not stated) here?
A: Its value is 0.784.

Q: `COc1cc(CN2CCN(Cc3ccc(C)s3)CC2CCO)cc(OC)c1` (configuration not stated) was tested. Which “bacterial growth OD600” value (polymyxin B 1 µg/mL) did it give?
A: Its value is 0.928.
